Measurements: publication PMC10163288
Some of the results follow.

B1: il2ra_site2_3nfp_sap_18_mot_11405e7faed88c9d08fdae67291e590b_0001_1_000000110_0001_14_30_H_._HHH_b2_00163_af2_0001_0000300012_0000001_0_0001 (protein)
chain: SSSSDKHERYLRAALELIERAIREGDHEIARRMLETVKSAAEDNNDEEIEELVEELEELLRSSSS
B2: il2ra_site1_3nfp_normal_mot_HHH_b1_05162_af2_000000139_0001_1_18_H_._HHH_b1_02574_af2_0001_0000600043_0000001_0 (protein)
chain: SSSSDEERREAQELLKEIMKLSKEGDKEEAKRLLEEVRELAEKANDKAAKWLVEELEKLLKSSSS
B3: il2ra_site1_2b5i_normal_mot_HHH_b2_01049_000000145_0001_39_52_H_._HHH_b2_01600_af2_0001_0000100004_0000001_0_af2pred_dldesign_0_af2pred (protein)
chain: SSSSSPKVEAAKAAAEAALAKLRARKRDKRVAFLEEALEELEETKDEKLAEELEKLALLALSSSS
B4: il2ra_site2_2erj_sap_16_mot_HHH_b2_08311_000000098_0001_42_56_H_._HHH_b2_04501_0001_0000700061_0000001_0_0001_af2pred_0001_af2pred_1_swapped (protein)
chain: SSSSSSDVEEEVERLLEEAKHVKDLREAIELLQEASKIAAERDNPELLQLVQRVFQELSSSSSSS
B5: il2ra_site2_2erj_normal_mot_HHH_b1_06554_af2_000000190_0001_44_57_H_._HHH_b2_03035_0001_0000100005_0000001_0_af2pred_0001_af2pred (protein)
chain: SSSSSDEEETRERVEELLEEAKRIPDFHEAFKLLQEADQLAVEYDDPELLELVQRVAQKLSSSSS
B6: il2ra_site1_3nfp_normal_mot_HHH_b1_02637_af2_000000026_0001_1_18_H_._HHH_b2_01529_af2_0001_0000200007_0000001_0_af2pred_0001_af2pred_1 (protein)
chain: SSSSSEELEEALRAFEEAYELYEKGDEEEAKKVLEEAIKIAEELGDENLVRFLRKALELLRSSSS
B7: il2ra_site2_3nfp_normal_mot_HHH_b1_06589_000000230_0001_37_50_H_._HHH_b2_06317_0001_0000200028_0000001_1 (protein)
chain: SSSDETKERVKELLEEVEELIRQGNEEEAQRVLAEATQVAYEGRDSEAYMLVAELAFELYQSSSS
B8: il2ra_site2_2erj_normal_mot_HHH_b1_02968_000000142_0001_22_39_H_._HHH_b1_03253_0001_0000600016_0000001_0_af2pred_0001_1_af2pred_swapped (protein)
chain: SSSSSSSAEEEVERLLEEAKHIPNLREALELAQEADEIASENNNDELIELVDRVAKELSSSSSSS
B9: il2ra_site1_3nfp_normal_mot_ems_3hC_775_af2_000000149_0001_42_60_H_._HEEHE_2142_af2_0001_0000300007_0000001_0 (protein)
chain: DEEEEIRRAVELAAKLARIPEVEVSESNGQFHVEIRGDDVQARHVSRLIEQAAKAFGIDVEVEYE
B10: il2ra_site1_3nfp_normal_mot_HHH_b1_00232_af2_000000283_0001_22_38_H_._HHH_b2_06365_0001_0000100005_0000001_0_af2pred_0001_af2pred_swapped (protein)
chain: SSSSSSSAVEQLLRHAQEAYENGNEELARRLLEKFLEALKKANIEDDFEEVEELLKELSSSSSSS

What follows are binders tested against il2ra, P01589 (assay: yeast display titration).

Apparent Kd, inactive:
B1 no binding seen
B2 no binding seen
B3 no binding seen
B4 no binding seen
B5 no binding seen
B6 no binding seen
B7 no binding seen
B8 no binding seen
B9 no binding seen
B10 no binding seen

Not a retest: an excerpt of the list.
Apparent Kd, inactive:
B8 no binding seen
B9 no binding seen
